Source: PubChem BioAssay AID743255 (National Center for Advancing Translational Sciences (NCATS), 2014)
Screen size: about 390,000 compounds; about 910 (0.23%) were called active. The inconclusive results got no clear call from the source; some entries with a clear call stand among them for comparison. Calls come from the whole dose curve; as a rule, active = well fitted inhibition curve with a large enough effect; inconclusive = small, poorly fitted or top-dose-only effect; inactive = no such curve, though single readings can be large or run the other way. Potencies beside an inconclusive call are fits to weak or partial responses and may not hold up.

Sequences of proteins named here, by UniProt entry; tags and fusion partners are left off. A change or cut given only in a name is not applied to a line headed by its entry.
UniProt O94782: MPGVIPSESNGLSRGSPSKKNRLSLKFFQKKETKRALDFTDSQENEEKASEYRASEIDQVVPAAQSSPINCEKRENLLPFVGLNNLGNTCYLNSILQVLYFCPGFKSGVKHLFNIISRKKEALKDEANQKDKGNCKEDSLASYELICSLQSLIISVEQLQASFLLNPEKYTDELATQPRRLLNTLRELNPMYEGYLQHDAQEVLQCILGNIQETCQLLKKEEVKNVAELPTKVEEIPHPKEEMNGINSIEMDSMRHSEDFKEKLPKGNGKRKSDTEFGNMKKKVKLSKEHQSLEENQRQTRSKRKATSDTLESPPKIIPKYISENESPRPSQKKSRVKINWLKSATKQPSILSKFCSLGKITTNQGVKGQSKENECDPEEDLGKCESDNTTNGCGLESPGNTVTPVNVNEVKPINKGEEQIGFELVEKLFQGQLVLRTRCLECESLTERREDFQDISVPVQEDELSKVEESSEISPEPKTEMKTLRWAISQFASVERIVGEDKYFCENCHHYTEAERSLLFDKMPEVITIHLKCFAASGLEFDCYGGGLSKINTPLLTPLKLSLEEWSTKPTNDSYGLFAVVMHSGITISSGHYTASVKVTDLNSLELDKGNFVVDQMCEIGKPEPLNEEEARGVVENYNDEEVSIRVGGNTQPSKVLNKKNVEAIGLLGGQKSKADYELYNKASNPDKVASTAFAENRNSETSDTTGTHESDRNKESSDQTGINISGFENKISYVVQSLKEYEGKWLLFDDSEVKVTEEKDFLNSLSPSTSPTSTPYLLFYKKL

molecular target: Ubiquitin carboxyl-terminal hydrolase 1 (Homo sapiens) (UniProt O94782); assay: Inhibitors of USP1/UAF1: Primary Screen; settings: recombinant USP1/UAF1, Ub-Rhodamine cleavage fluorescence; activity change, negative = inhibition: at 57.1 µM (top of the series); note: nearly all actives have a fitted effect of over 60% in size
How it was run: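 Step one: compound is pinned into 1nM USP1/UAF1 in HEPES pH 7.8 buffer with TCEP. Step two: 15 min room-temperature incubation. Step three: Ub-Rho (150nM final) starts cleavage, tracked by fluorescence over six one-minute reads.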
% is set by controls: 0 for no effect and ±100 for the full control effect; potency is the fitted concentration of half-maximal effect.

Potency, inconclusive:
CCOc1cc(CNc2ccc(O)cc2)ccc1OCc1ccc(Cl)cc1 39.8 µM [inhibitor, partial curve, poor fit], COc1cc2c(=O)[nH]c3cc([N+](=O)[O-])ccc3c2cc1[N+](=O)[O-] 0.282 µM [inhibitor, full curve, poor fit], COc1ccccc1Cc1nc2ccccc2[nH]c1=O 44.7 µM [inhibitor, partial curve, poor fit], CN(C)CCCn1c2c(c(SCC(=O)Nc3ccc4c(c3)OCCO4)nc1=O)CCCC2 0.398 µM [inhibitor, full curve, poor fit], Cc1nc(N2CCN(S(=O)(=O)c3cccc4nonc34)CC2)c2c3c(sc2n1)CCCC3 35.5 µM [inhibitor, single point], CCCSCCCNC(=O)C1CCN(c2nn3cc(-c4ccc(F)cc4)nc3s2)CC1 0.178 µM [inhibitor, full curve, poor fit], CC(C)Cn1c(=O)c2ccccc2n2c(CCC(=O)N3CCN(c4ccccc4F)CC3)nnc12 0.282 µM [inhibitor, full curve, poor fit], COc1nnc(-c2ccc(N3CCOCC3)c(NC(=O)c3ccc(C)cc3)c2)c2ccccc12 28.2 µM [inhibitor, partial curve], CN(CC(=O)NCCCc1ccccc1)Cc1ccc(Br)cc1 8.91 µM [inhibitor, full curve, poor fit], COc1ccc(C(CNC(=O)c2oc3ccc(C)cc3c2C)N2CCOCC2)cc1 (stereo unspecified) 1 µM [inhibitor, full curve, poor fit], COc1ccc(-c2nnc(SCC(=O)N3CCCC(C)C3)o2)c(OC)c1 (stereo unspecified) 4.47 µM [inhibitor, partial curve], O=C(c1cc(Cl)nc2ccccc12)N1CCc2ccccc2C1 50.1 µM [inhibitor, partial curve, poor fit], CCCn1c(C)cc(C(=O)COC(=O)c2cc(S(=O)(=O)NCC(C)C)c(Cl)cc2Cl)c1C 7.08 µM [inhibitor, full curve, poor fit], Cc1ccc(N(CC(=O)NCCc2ccccc2)S(=O)(=O)N(C)C)cc1 50.1 µM [inhibitor, partial curve, poor fit], O=C(O)CN1C(=O)/C(=C\c2cccc(OCc3ccc(Cl)cc3)c2)SC1=S 44.7 µM [inhibitor, partial curve, poor fit], COc1ccc(NC(=O)Cn2nc(-c3ccncc3)ccc2=O)cc1Cl 35.5 µM [inhibitor, partial curve], C=C(C)Cn1c(-c2ccncc2)n[nH]c1=S 0.794 µM [inhibitor, full curve], Cc1cccc(N(C(=O)c2csnn2)C(C(=O)NCc2ccccc2)c2cccs2)c1 (stereo unspecified) 11.2 µM [inhibitor, partial curve, poor fit], CCOC(=O)C1=C(CSc2nc3c(cc2C#N)CCC3)OC(N)=C(C#N)C1c1ccccc1 (stereo unspecified) 0.891 µM [inhibitor, full curve, poor fit], Cc1ccc(Nc2nc(C)cc(C)n2)c(C(=O)O)c1 2.82 µM [inhibitor, partial curve], COc1ccc(NC(=O)c2sc3nc(C)c(C(=O)Nc4ccc(C)cc4C)c(-c4ccc(C)o4)c3c2N)cc1 14.1 µM [inhibitor, partial curve], O=C1C(=O)N(CCS(=O)(=O)c2ccccc2)c2ccc(Cl)cc21 31.6 µM [inhibitor, partial curve], O=C(O)c1ccc2c(c1)S(=O)(=O)c1cc(N3CCN(c4cnccn4)CC3)ccc1C2=O 0.708 µM [inhibitor, full curve, poor fit], C[C@H](CO)N1C[C@H](C)[C@@H](CN(C)S(=O)(=O)c2ccccc2)Oc2ccc(NC(=O)Nc3ccc4c(c3)OCO4)cc2C1=O 44.7 µM [inhibitor, partial curve, poor fit], CC(C)CCNC(=O)c1ccc2c(c1)NC(=O)C(CS(=O)(=O)Cc1cccc(Br)c1)N2 (stereo unspecified) 28.2 µM [inhibitor, partial curve], Cc1ccc(NC(=O)/C(C#N)=C/c2ccc(C)o2)cc1 5.01 µM [inhibitor, partial curve], CCCn1nnc(NC(=O)c2ccco2)n1 44.7 µM [inhibitor, single point], O=C(COC(=O)c1ccccc1Br)NCCN1C(=O)CSC1=O 5.01 µM [inhibitor, partial curve], COc1ccc(C2CC(c3cccs3)=Nc3ccccc3S2)cc1 (stereo unspecified) 15.8 µM [inhibitor, partial curve], O=S(=O)(c1ccc(N=C2NN=C(c3cc(F)ccc3F)CS2)cc1)N1CCOCC1 17.8 µM [inhibitor, partial curve], CCOc1ccc(NC(=O)C(NC(=O)C2CCC(C)CC2)C(C)C)cc1 (stereo unspecified) 44.7 µM [inhibitor, partial curve, poor fit], COc1cc(/C=N/NC(=O)COc2ccc([N+](=O)[O-])cc2)ccc1OCC(=O)N1CCOCC1 0.708 µM [inhibitor, full curve, poor fit], COCc1ccc(C(=O)NC2CC(C)(C)Cc3c2cnn3-c2ccc(OC)cc2)o1 (stereo unspecified) 15.8 µM [inhibitor, partial curve, poor fit], COc1cccc2c1cc1c(=O)n(CC(=O)NC3CC3)nc(C)n12 50.1 µM [inhibitor, single point], CCN(CC)S(=O)(=O)c1ccc2c(c1)nc(CCC(=O)O)n2C 35.5 µM [inhibitor, partial curve], C=CC[C@H](CC(=O)NCCO)C(=O)N[C@H](COC(=O)[C@H](CC=C)CC(=O)OC(C)(C)C)c1ccccc1 7.08 µM [inhibitor, partial curve], Cc1c(C)n(Cc2ccc(Cl)cc2)c2ccc(C(=O)NCCc3ccc(S(N)(=O)=O)cc3)cc12 0.251 µM [inhibitor, full curve, poor fit], NC(=O)/C(=C\c1ccco1)NC(=O)c1ccco1 0.251 µM [inhibitor, full curve, poor fit], CCCn1c(N)c(N(CCOC)C(=O)c2ccc([N+](=O)[O-])c(C)c2)c(=O)[nH]c1=O 4.47 µM [inhibitor, partial curve], CN(C)S(=O)(=O)Oc1cccc(C(=O)Nc2ccc([N+](=O)[O-])cc2)c1 35.5 µM [inhibitor, partial curve, poor fit], CSc1nc2sc3c(c2c(=O)n1-c1ccccc1C)CCCC3 39.8 µM [inhibitor, single point], O=C(Nc1sc(-c2ccccc2)cc1C(=O)O)c1ccccc1 44.7 µM [inhibitor, partial curve], Cn1cnnc1SCC(=O)c1c(N)n(Cc2ccccc2)c(=O)n(C)c1=O 35.5 µM [inhibitor, partial curve], Cn1c(=O)oc2cc(S(=O)(=O)NCCN3CCN(c4ccccc4F)CC3)ccc21 44.7 µM [inhibitor, partial curve, poor fit]

Activity change, negative = inhibition, inactive:
COc1cc(NC(=O)CCl)ccc(=O)c1 5.46%, Cc1c(C(=O)NCc2ccccc2Br)oc2c1-c1[nH]ncc1CC2 -6.48%, CCCCC1(CO)C(=O)N(c2ccccc2)N(c2ccccc2)C1=O -8.33%, COCCn1c(SCC(=O)NCc2ccc3c(c2)OCO3)nnc1C(C)C 1.15%, CCOC(=O)c1c(NC(C)=O)sc2c1CCC(C=O)=C2Sc1ccccc1 -17.5%, CCO[C@H]1OC(C(=O)NC2CC2)=C[C@@H](c2ccc3c(c2)OCO3)[C@@H]1CCCO -14.9%, CCc1cccc(NC(=O)Nc2csc3c2CCCC3)c1 -16.9%, CC(C)/C=C(/C(=O)c1ccc(Cl)cc1Cl)n1cncn1 -0.796%, CCc1ccc(NC(=O)CN2C(=O)C3(SCC(=O)N3c3ccccc3)c3ccccc32)cc1 (stereo unspecified) -11.5%, COc1ccc(OCCCCn2c(C3CC(=O)N(c4cccc(Cl)c4)C3)nc3ccccc32)cc1 (stereo unspecified) -12%, CCN1C(=O)C(=O)c2cc(C)ccc21 -14.5%, CCOC(=O)c1cc(-c2ccccc2)n(CC(=O)N(C)c2ccc(OC)cc2)c1C -5.36%, Cc1nnc(SCC(=O)Nc2ccc(Br)cc2)[nH]c1=O -8.71%, Cc1[nH]c2ccc(C(C)C)cc2c1CC(=O)O -12.6%, CCOC(=O)c1nc(NCc2cccnc2)c2ccccc2n1 -8.35%, CC(C(=O)NC1CCCC1)N1CCN(S(=O)(=O)c2ccc(C(C)(C)C)cc2)CC1 (stereo unspecified) -2.48%, CCOC(=O)C1CCN(C(=O)c2ccc(C)o2)CC1 -11.4%, CC1=C(c2ccccc2)C(O)(c2ccccc2)C(C)C1=O (stereo unspecified) -12%, CCCN1CCN(CCCNC(=O)c2cnn(-c3ccc(F)cc3)c2-n2cccc2)CC1 -3.08%, COc1ccc(NC(=O)CN(c2ccccc2OC)S(=O)(=O)c2cccs2)cc1Cl -5.81%, Clc1ccc(N/N=C/c2ccncc2)cc1Cl -10.7%, CCOc1cc(/C=C2\SC(=N)N(c3nccs3)C2=O)ccc1OCCN1CCOCC1 -19.2%
